According to patent publication US20250388543A1, “HETEROARYL COMPOUNDS FOR THE TREATMENT OF PAIN” (VERTEX PHARMACEUTICALS INCORPORATED, priority 2022, published 2025):
Some results were stated once for a whole list of compounds, not compound by compound.

Chains of the proteins cited; added tags and fusions are not shown. Residues count along the entry.
UniProt Q9Y5Y9, 126-1722 limits assumed: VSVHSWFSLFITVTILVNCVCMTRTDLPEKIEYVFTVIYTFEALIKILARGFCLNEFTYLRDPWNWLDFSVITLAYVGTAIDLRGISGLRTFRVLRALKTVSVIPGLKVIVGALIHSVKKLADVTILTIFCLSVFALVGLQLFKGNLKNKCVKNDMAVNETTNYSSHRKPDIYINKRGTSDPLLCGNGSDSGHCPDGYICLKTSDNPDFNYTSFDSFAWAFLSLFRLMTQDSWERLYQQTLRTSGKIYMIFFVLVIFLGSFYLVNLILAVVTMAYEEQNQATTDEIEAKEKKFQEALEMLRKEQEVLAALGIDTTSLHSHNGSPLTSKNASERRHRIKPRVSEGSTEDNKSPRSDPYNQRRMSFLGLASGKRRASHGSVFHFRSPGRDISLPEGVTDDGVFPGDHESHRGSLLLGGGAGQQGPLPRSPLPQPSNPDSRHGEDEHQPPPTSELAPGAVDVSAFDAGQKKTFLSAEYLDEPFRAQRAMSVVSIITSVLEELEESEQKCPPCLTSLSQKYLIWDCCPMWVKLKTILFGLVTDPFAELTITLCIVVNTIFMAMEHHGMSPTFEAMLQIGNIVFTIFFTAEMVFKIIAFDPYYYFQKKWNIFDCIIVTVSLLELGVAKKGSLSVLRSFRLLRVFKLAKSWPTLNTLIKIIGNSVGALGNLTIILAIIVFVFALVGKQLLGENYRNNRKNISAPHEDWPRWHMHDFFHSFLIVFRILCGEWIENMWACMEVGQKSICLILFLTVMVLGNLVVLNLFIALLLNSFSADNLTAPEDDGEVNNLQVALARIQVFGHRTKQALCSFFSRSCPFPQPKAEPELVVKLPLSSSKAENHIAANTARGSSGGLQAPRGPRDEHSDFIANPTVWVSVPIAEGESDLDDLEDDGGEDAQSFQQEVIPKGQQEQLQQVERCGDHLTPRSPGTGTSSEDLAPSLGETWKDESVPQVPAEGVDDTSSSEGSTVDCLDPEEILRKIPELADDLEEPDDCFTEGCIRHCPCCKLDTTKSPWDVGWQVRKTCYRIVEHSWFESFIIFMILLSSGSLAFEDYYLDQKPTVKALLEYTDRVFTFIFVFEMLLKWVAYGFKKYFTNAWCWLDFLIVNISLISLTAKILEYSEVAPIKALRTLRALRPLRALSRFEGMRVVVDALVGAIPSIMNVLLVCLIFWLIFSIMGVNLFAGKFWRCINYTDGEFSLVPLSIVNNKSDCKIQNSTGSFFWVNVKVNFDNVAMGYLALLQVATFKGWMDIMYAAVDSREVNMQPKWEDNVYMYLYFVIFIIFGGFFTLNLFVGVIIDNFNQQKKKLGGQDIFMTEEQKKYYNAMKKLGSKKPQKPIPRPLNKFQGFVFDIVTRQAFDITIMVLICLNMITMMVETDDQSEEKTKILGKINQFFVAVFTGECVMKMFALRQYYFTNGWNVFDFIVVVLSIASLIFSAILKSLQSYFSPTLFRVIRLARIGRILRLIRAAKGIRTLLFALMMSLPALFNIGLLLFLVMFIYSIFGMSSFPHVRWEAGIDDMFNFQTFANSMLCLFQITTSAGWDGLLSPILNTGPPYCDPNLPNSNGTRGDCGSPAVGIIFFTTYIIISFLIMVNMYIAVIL

The molecules below were run against human NaV 1.8 (Homo sapiens, UniProt Q9Y5Y9) (assay: E-VIPR Assay Detecting and Measuring NaV Inhibition Properties). Conditions: HEK cells expressing a truncated form of human NaV 1.8 with full channel activity; electrical stimulation, membrane-potential FRET dyes; 30 minutes compound incubation; read-out: measured IC50 value in the E-VIPR Assay.
Assay type: cell-based

IC50, < 0.5 µM:
CCOC(=O)c1c(-c2cc(F)c(C(F)(F)F)cc2Oc2ccc(F)c(F)c2OC)[nH]c(C)c(OC)c1=O [Compound 62, ethyl 2-[2-(3,4-difluoro-2-methoxy-phenoxy)-5-fluoro-4-(trifluoromethyl)phenyl]-5-methoxy-6-methyl-4-oxo-1H-pyridine-3-carboxylate]
CCOC(=O)c1c(C)[nH]c(-c2cc(C)c(C(F)(F)F)nc2N2CCCC(F)(F)CC2)c(C)c1=O [Compound 63, ethyl 6-[2-(4,4-difluoroazepan-1-yl)-5-methyl-6-(trifluoromethyl)-3-pyridyl]-2,5-dimethyl-4-oxo-1H-pyridine-3-carboxylate]
CCOC(=O)c1c(C)[nH]c(-c2cc3ccccc3nc2Oc2ccc(F)c(F)c2C)c(C)c1=O [Compound 64, ethyl 6-[2-(3,4-difluoro-2-methyl-phenoxy)-3-quinolyl]-2,5-dimethyl-4-oxo-1H-pyridine-3-carboxylate]
COc1c(Oc2cc(C(F)(F)F)c(F)cc2-c2cc(=O)c(C)c(C)[nH]2)ccc(F)c1F [Compound 65, 6-[2-(3,4-difluoro-2-methoxy-phenoxy)-5-fluoro-4-(trifluoromethyl)phenyl]-2,3-dimethyl-1H-pyridin-4-one]
Cc1cc(=O)c(N(C)C)c(-c2cc3ccccc3nc2N2CCCC(F)(F)CC2)[nH]1 [Compound 66, 2-[2-(4,4-difluoroazepan-1-yl)-3-quinolyl]-3-(dimethylamino)-6-methyl-1H-pyridin-4-one]
CCOC(=O)c1c(-c2cc3ccccc3nc2N2CCCC(F)(F)CC2)[nH]c(C)c(O)c1=O [Compound 67, ethyl 2-[2-(4,4-difluoroazepan-1-yl)-3-quinolyl]-5-hydroxy-6-methyl-4-oxo-1H-pyridine-3-carboxylate]
CCOC(=O)c1c(-c2cc(C)c(C(F)(F)F)nc2Oc2ccc(F)c(F)c2C)[nH]c(C)c(C)c1=O [Compound 68, ethyl 2-[2-(3,4-difluoro-2-methyl-phenoxy)-5-methyl-6-(trifluoromethyl)-3-pyridyl]-5,6-dimethyl-4-oxo-1H-pyridine-3-carboxylate]
COc1c(Oc2cc(C(F)(F)F)c(F)cc2-c2[nH]c(C)c(C)c(=O)c2C)ccc(F)c1F [Compound 69, 2-[2-(3,4-difluoro-2-methoxy-phenoxy)-5-fluoro-4-(trifluoromethyl)phenyl]-3,5,6-trimethyl-1H-pyridin-4-one]
CCOC(=O)c1c(-c2cc(C)c(C(F)(F)F)nc2N2CCCC(F)(F)CC2)[nH]c(C)c(O)c1=O [Compound 70, ethyl 2-[2-(4,4-difluoroazepan-1-yl)-5-methyl-6-(trifluoromethyl)-3-pyridyl]-5-hydroxy-6-methyl-4-oxo-1H-pyridine-3-carboxylate]
CCOC(=O)c1c(-c2cc3ccccc3nc2Oc2ccc(F)c(F)c2C)[nH]c(C)c(O)c1=O [Compound 71, ethyl 2-[2-(3,4-difluoro-2-methyl-phenoxy)-3-quinolyl]-5-hydroxy-6-methyl-4-oxo-1H-pyridine-3-carboxylate]
CCOC(=O)c1c(-c2cc(C(F)(F)F)ncc2Oc2ccc(OC(F)(F)F)cc2OC)[nH]c(C)c(C)c1=O [Compound 72, ethyl 2-[5-[2-methoxy-4-(trifluoromethoxy)phenoxy]-2-(trifluoromethyl)-4-pyridyl]-5,6-dimethyl-4-oxo-1H-pyridine-3-carboxylate]
CCOC(=O)c1c(-c2cc3ccccc3nc2N2CCCC(F)(F)CC2)[nH]c(C)c(OC)c1=O [Compound 73, ethyl 2-[2-(4,4-difluoroazepan-1-yl)-3-quinolyl]-5-methoxy-6-methyl-4-oxo-1H-pyridine-3-carboxylate]
CCOC(=O)c1c(-c2cc3ccccc3nc2Oc2ccc(F)c(F)c2C)[nH]c(C)c(C#N)c1=O [Compound 74, ethyl 5-cyano-2-[2-(3,4-difluoro-2-methyl-phenoxy)-3-quinolyl]-6-methyl-4-oxo-1H-pyridine-3-carboxylate]
CCOC(=O)c1c(-c2cc3ccccc3nc2N2CCCC(F)(F)CC2)[nH]c(C)c(C)c1=O [Compound 75, ethyl 2-[2-(4,4-difluoroazepan-1-yl)-3-quinolyl]-5,6-dimethyl-4-oxo-1H-pyridine-3-carboxylate]
Cc1cc(=O)c(N(C)C)c(-c2cc3ccccc3nc2Oc2ccc(F)c(F)c2C)[nH]1 [Compound 76, 2-[2-(3,4-difluoro-2-methyl-phenoxy)-3-quinolyl]-3-(dimethylamino)-6-methyl-1H-pyridin-4-one]
CCOC(=O)c1c(-c2cc(C)c(C(F)(F)F)nc2N2CCCC(F)(F)CC2)[nH]c(C)c(OC)c1=O [Compound 77, ethyl 2-[2-(4,4-difluoroazepan-1-yl)-5-methyl-6-(trifluoromethyl)-3-pyridyl]-5-methoxy-6-methyl-4-oxo-1H-pyridine-3-carboxylate]
CCOC(=O)c1c(-c2cc3ccccc3nc2Oc2ccc(F)c(F)c2C)[nH]c(C)c(OC)c1=O [Compound 78, ethyl 2-[2-(3,4-difluoro-2-methyl-phenoxy)-3-quinolyl]-5-methoxy-6-methyl-4-oxo-1H-pyridine-3-carboxylate]
COC(=O)c1c(-c2cc(F)c(C(F)(F)F)cc2Oc2ccc(F)c(F)c2OC)[nH]c(C)cc1=O [Compound 79, methyl 2-[2-(3,4-difluoro-2-methoxy-phenoxy)-5-fluoro-4-(trifluoromethyl)phenyl]-6-methyl-4-oxo-1H-pyridine-3-carboxylate]
CCOC(=O)c1c(-c2cc(C(F)(F)F)ncc2Oc2ccc(F)c(F)c2OC)[nH]c(C)c(C)c1=O [Compound 80, ethyl 2-[5-(3,4-difluoro-2-methoxy-phenoxy)-2-(trifluoromethyl)-4-pyridyl]-5,6-dimethyl-4-oxo-1H-pyridine-3-carboxylate]
CCOC(=O)c1c(-c2cc(F)c(C(F)(F)F)cc2Oc2ccc(F)c(F)c2OC)[nH]c(C)cc1=O [Compound 81, ethyl 2-[2-(3,4-difluoro-2-methoxy-phenoxy)-5-fluoro-4-(trifluoromethyl)phenyl]-6-methyl-4-oxo-1H-pyridine-3-carboxylate]
COc1c(Oc2cc(C(F)(F)F)c(F)cc2-c2[nH]c(C)c(C#N)c(=O)c2C)ccc(F)c1F [Compound 82, 6-[2-(3,4-difluoro-2-methoxy-phenoxy)-5-fluoro-4-(trifluoromethyl)phenyl]-2,5-dimethyl-4-oxo-1H-pyridine-3-carbonitrile]
CCOC(=O)c1c(-c2c(Oc3ccc(F)c(F)c3C)nc3ccccc3c2C)[nH]c(C)c(C)c1=O [Compound 83, ethyl 2-[2-(3,4-difluoro-2-methyl-phenoxy)-4-methyl-3-quinolyl]-5,6-dimethyl-4-oxo-1H-pyridine-3-carboxylate]
COc1c(Oc2cc(C(F)(F)F)c(F)cc2-c2[nH]c(C)cc(=O)c2OC)ccc(F)c1F [Compound 84, 2-[2-(3,4-difluoro-2-methoxy-phenoxy)-5-fluoro-4-(trifluoromethyl)phenyl]-3-methoxy-6-methyl-1H-pyridin-4-one]
COc1c(-c2cc3ccccc3nc2N2CCCC(F)(F)CC2)[nH]c(C)cc1=O [Compound 85, 2-[2-(4,4-difluoroazepan-1-yl)-3-quinolyl]-3-methoxy-6-methyl-1H-pyridin-4-one]
CCOC(=O)c1c(-c2cc3ccccc3nc2N2CCCC(F)(F)CC2)[nH]c(C)cc1=O [Compound 86, ethyl 2-[2-(4,4-difluoroazepan-1-yl)-3-quinolyl]-6-methyl-4-oxo-1H-pyridine-3-carboxylate]
CCOC(=O)c1c(-c2cc(C)c(C(F)(F)F)nc2N2C[C@@H](C)C(F)(F)[C@@H](C)C2)[nH]c(C)c(C)c1=O [Compound 87, ethyl 2-[2-[(3R,5S)-4,4-difluoro-3,5-dimethyl-1-piperidyl]-5-methyl-6-(trifluoromethyl)-3-pyridyl]-5,6-dimethyl-4-oxo-1H-pyridine-3-carboxylate]
CCOC(=O)c1c(-c2cc(C)c(C(F)(F)F)nc2N2CCC(F)(F)CC2)[nH]c(C)c(C)c1=O [Compound 88, ethyl 2-[2-(4,4-difluoro-1-piperidyl)-5-methyl-6-(trifluoromethyl)-3-pyridyl]-5,6-dimethyl-4-oxo-1H-pyridine-3-carboxylate]
CCOC(=O)c1c(C)[nH]c(-c2cc(F)c(C(F)(F)F)cc2Oc2ccc(F)c(F)c2OC)c(C)c1=O [Compound 89, ethyl 6-[2-(3,4-difluoro-2-methoxy-phenoxy)-5-fluoro-4-(trifluoromethyl)phenyl]-2,5-dimethyl-4-oxo-1H-pyridine-3-carboxylate]
CCOC(=O)c1c(-c2c(Oc3ccc(F)c(F)c3C)ncc(C(F)(F)F)c2C)[nH]c(C)c(C)c1=O [Compound 90, ethyl 2-[2-(3,4-difluoro-2-methyl-phenoxy)-4-methyl-5-(trifluoromethyl)-3-pyridyl]-5,6-dimethyl-4-oxo-1H-pyridine-3-carboxylate]
Cc1c(Oc2nc3ccccc3cc2-c2[nH]ccc(=O)c2C)ccc(F)c1F [Compound 91, 2-[2-(3,4-difluoro-2-methyl-phenoxy)-3-quinolyl]-3-methyl-1H-pyridin-4-one]
CCOC(=O)c1c(-c2cc(F)c(C(F)(F)F)cc2Oc2ccc(F)c(F)c2OC)[nH]c(C)c(C)c1=O [Compound 92, ethyl 2-[2-(3,4-difluoro-2-methoxy-phenoxy)-5-fluoro-4-(trifluoromethyl)phenyl]-5,6-dimethyl-4-oxo-1H-pyridine-3-carboxylate]
COCCOc1c(-c2cc(C)c(C(F)(F)F)nc2N2CCCC(F)(F)CC2)[nH]c(C)cc1=O [Compound 93, 2-[2-(4,4-difluoroazepan-1-yl)-5-methyl-6-(trifluoromethyl)-3-pyridyl]-3-(2-methoxyethoxy)-6-methyl-1H-pyridin-4-one]
COCCOc1c(-c2cc3ccccc3nc2Oc2ccc(F)c(F)c2C)[nH]c(C)cc1=O [Compound 94, 2-[2-(3,4-difluoro-2-methyl-phenoxy)-3-quinolyl]-3-(2-methoxyethoxy)-6-methyl-1H-pyridin-4-one]
